Taken from: PubChem BioAssay AID1259254 (NCATS, 2017)

Screen: 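Genome-wide screen for genes that prevent DNA re-replication in cancer cells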 (primary screen)
System: human HCT116 colorectal cancer cells
Knock-down reagent: single siRNA against human genes
Time to read-out: 3 days
Measured: 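Nuclei stained with Hoechst and imaged; cell-cycle phase assigned by DNA content; G2 share scaled per plate, non-targeting siRNA 0%, GMNN siRNA 100%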
Scale: G2 robust z-score: higher = more G2 cells, more excess DNA replication
Hit rule: 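Active siRNAs have a G2 robust z of 5 or more median absolute deviations over the median, which in these data means about 38% or higher of GMNN control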
Here is one part, drawn at random, of about 59,000 reagents tested. About 1,550 of all reagents (2.6%) were called active. 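G2 share is only a proxy for re-replication; each gene was hit by three separate siRNAs, and active genes were retested.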 Further read-outs or replicates are left out here. Not given: the amount of reagent.

VPS4B [SID160722413] gave G2 robust z-score 0.274; inactive.
For VPS4B [SID160722414] the deposit lists G2 robust z-score 4.46; inactive.
VPS4B [SID160722415] scored G2 robust z-score -1.15; inactive.
After knock-down of TMC7 [SID160749747], the record shows G2 robust z-score -1.03; inactive.
For TMC7 [SID160749748] the deposit lists G2 robust z-score 1.17; inactive.
For TMC7 [SID160749749], the values are G2 robust z-score -0.915; inactive.
After knock-down of NET1 [SID160728052], the record shows G2 robust z-score -0.8; inactive.
For NET1 [SID160728053] the deposit lists G2 robust z-score -0.205; inactive.
For NET1 [SID160728054] the deposit lists G2 robust z-score -0.274; inactive.
After knock-down of SCARA3 [SID160740807], the record shows G2 robust z-score -0.828; inactive.
Depletion of SCARA3 [SID160740808] came out at: G2 robust z-score -0.0822; inactive.
After knock-down of SCARA3 [SID160740809], the record shows G2 robust z-score -1.08; inactive.

An excerpt from the list above:
VPS4B [SID160722414] | G2 robust z-score = 4.46; Call = inactive
VPS4B [SID160722415] | G2 robust z-score = -1.15; Call = inactive

The list goes on:
Depletion of FAM177B [SID160767060] gave: G2 robust z-score 0.661; inactive.
After knock-down of FAM177B [SID160767061], the screen gave G2 robust z-score 0.749; inactive.
Knock-down of FAM177B [SID160767062] resulted in: G2 robust z-score 1.09; inactive.
Depletion of PRSS50 [SID160739117] gave: G2 robust z-score 0.92; inactive.
Against PRSS50 [SID160739118], the entry reads G2 robust z-score 1.54; inactive.
PRSS50 [SID160739119] showed G2 robust z-score -0.614; inactive.
VSTM1 [SID160732974] showed G2 robust z-score -0.598; inactive.
Silencing of VSTM1 [SID160763319] resulted in: G2 robust z-score -0.487; inactive.
Silencing of VSTM1 [SID160763320] resulted in: G2 robust z-score 3.54; inactive.
Knock-down of TENT5B [SID160755227] came out at: G2 robust z-score 1.56; inactive.
With knock-down of TENT5B [SID160755228], the record shows G2 robust z-score -0.835; inactive.
Against TENT5B [SID160755229], the values are G2 robust z-score -0.213; inactive.
